Measurements reported in PubChem BioAssay AID1347426 (Functional Genomics Laboratory (NCATS/FGL), 2020).
The campaign covered roughly 31,000 sequences. About 1,400 (4.5%) were called active.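 How the source made its calls: active means median seed-adjusted z-score above 1 or below -1; inactive means the rest.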 Some of the results follow.

Experiment: Novel Modifiers of Survival Motor Neuron (SMN) Protein: Gene Identification via Genome-wide siRNA Screen;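 further: luminescence tracks full-length SMN protein made from the SMN2 reporter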
Settings: HEK293T SMN2-luciferase reporter, siRNA knockdown, 72 h; actives lie on both sides
Summary of the method: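 Steps: spot 1 pmol siRNA, add Lipofectamine RNAiMax in serum-free DMEM, seed HEK293T SMN2–luciferase reporter cells; incubate 72 h at 37 °C; add ONE-Glo; normalize luminescence to control siRNA, log10, MAD. Candidates: |MAD| > 1.0.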

Sequence | median seed-adjusted z-score
GCUGUAUUCUCAAUCCUAUTT against ADCY8 | inactive: 0.103
GAGUACGAGUGGUAAAGCATT against SELI | inactive: 0
GAAAUGCGGUUGCUGAAGATT against SIX5 | inactive: 0
AUAAAUACCUCGGACAUUATT against EIF1AX | inactive: 0.878
CAAUUUUAAGAGGAAGCAATT against PRODH2 | inactive: 0.817
UCAAUACUGUGGGUUCUUATT against FBLN2 | inactive: 0.176
ACCCACUCCUAAAAACUCATT against NDUFB4 | inactive: -0.697
GAACUAUCCUAUCCCUGAATT against SORD | inactive: 0.17
CCACCAUGAUCAAAAUGGATT against SALL3 | inactive: -0.133
CCAUCCCACUGGUCACAUUTT against SLC7A8 | inactive: -0.134
GCUAUAUCCAGGUCACAGATT against PRKACB | inactive: -0.258
GGUCAUACACGGGAUCUCUTT against SLC30A2 | inactive: -0.402
GGCUAGGAAUGUGCAGACATT against EXO1 | inactive: 0.547
CCUGGACGAUGACGGAUUATT against SETD7 | inactive: -0.0831
ACAUCUUCCUCACGUCCUATT against PLXNB2 | inactive: -0.237
GCACAUCCGAAGUGAGUUUTT against MTHFR | inactive: 0
GACUUGAGCUAAAUGGUCATT against SIAH1 | active: 1.5
GCUUAUGAACUAACGAGAATT against USP13 | inactive: -0.044
GGUUCAGUCUAUACAACAATT against DSC2 | inactive: -0.0641
GGUGCUGGAUGUUAACGAUTT against PCDHB15 | inactive: 0.0154
GGAUGACCAGGGUCUAUAATT against FMO4 | inactive: -0.359
GCUGGACUCUUUGGGUUCATT against CDH26 | inactive: 0

Sequence | median seed-adjusted z-score
CAAUAGCAGUGCUAUGUUATT against ARPC5 | inactive: -0.479
GCAUAUCCAUAUACAACAATT against PDZD8 | inactive: 0.0582
AGAUUUUCAAGGGAGCAAATT against EWSR1 | inactive: -0.654
CAACGAUGGUGUACUACAATT against ABCC9 | inactive: 0.376
CUUCACUAUUUACCUCUUUTT against 3-Mar | inactive: 0.069
GCAGUAACCUUAUACACUATT against BTNL9 | inactive: 0.0189
AGUCAGCUCCGAUACUUCATT against CAPN10 | inactive: 0.364
GCUCAUCUCUCACGACAAUTT against HOXC9 | inactive: 0.395
GGAUUUCUUCAUCCCGCUUTT against GSX2 | inactive: -0.621
AGAGUGCCGUCAUUCCGGATT against BMP4 | inactive: -0.612
GAUUUCCAGUAGUCGAAAATT against CD46 | inactive: -0.0278
CGAACGGACUUGAACUACATT against DNAH5 | inactive: -0.45
CGUUGGAUGAGGUGGAUAATT against PRKCQ | inactive: 0.692
GGGCUAAGCGAUCCAGUAATT against HNF4G | inactive: 0.01
GAAGGAUUAGAAACCGCAATT against RNF144 | inactive: 0.0938
GCCCUUAUUCCGAUCUACATT against ERCC1 | inactive: -0.566
AGAAAGUGUACGACCCAAATT against NUCB1 | inactive: 0.232
CCAUAACCGCCACACCCUUTT against GPR153 | active: -1.08
GGGCUACAAUAGUAAGUUUTT against ZNF224 | inactive: 0.0073
AGUUGUAAAUUUACAAAGATT against UNC119 | inactive: 0.171
CUCUGAUGAUGUCGAAAAATT against LGR5 | inactive: 0
GCUAGAUUUUCUUCCAGUATT against ZFAND2A | inactive: 0

Sequence | median seed-adjusted z-score
GCAUGGUAAUUUAUAGUUUTT against NGF | inactive: -0.325
GAAAUUUAUUGACGACAGATT against CDYL | inactive: 0
CAUCCAUCCUACUUCAUCATT against ZNF667 | inactive: -0.101
CCUUAAAGGUGCGACUGAATT against FIGLA | inactive: -0.064
GCAAGAGCGAUGUCUACUATT against MBD2 | inactive: -0.067
CCUUGAUAGUGGUCGGGAATT against OSBPL3 | inactive: 0.0159
GGAAGAGACCUUUACCUGUTT against KLF3 | inactive: 0.628
CGAACAGCCUACACCUACATT against RFX2 | inactive: 0.271
GGAACAUUCCGACCUACAATT against PTDSS2 | inactive: 0.0941
CUUUCUAGAUGACAACUUCTT against NPBWR2 | inactive: 0.438
GGAGUACCAUAGAUACAGATT against PPIG | inactive: -0.0192
GCUCAGAACUUUAGUUUUATT against NUPL2 | inactive: 0.134
GGACCCAAGUCUUGCUGCATT against CARD18 | inactive: 0.568
AGUACAUGCAGGUACCUGUTT against DUSP18 | inactive: 0.13
CCACGAGUCUUCACAUGAATT against SSH3 | inactive: -0.0772
CGCAAGUACUAUUCCACCATT against SMOX | inactive: -0.148
GACGACCAAUUAUAGUUUATT against ZRANB1 | inactive: -0.347
CCUGCUAAAUUGGAUCAAATT against ITIH2 | inactive: 0.262
GGCUCUACCAGAUAGAAAATT against HUNK | inactive: -0.183
GGCAGUAGCUGACUUUCUATT against GPR109B | inactive: 0.321
GGAGGUGGUUUGAAUGCAATT against TIGD3 | inactive: 0.486
CUAACGUAAUGACUGCUUUTT against ELK4 | inactive: 0.235

Sequence | median seed-adjusted z-score
GCAUCAUCCCUGGUACCAATT against SRCAP | inactive: -0.42
CAGUGAAGAUAUCGAAAAATT against PARP11 | inactive: 0.192
GGCUUAUUGGAGCUCUUAATT against CSE1L | inactive: 0.425
CAAUCAAGUUUUACACCAATT against MAP3K15 | inactive: -0.315
AGAACUUUGAGUCCAUGUATT against TBX21 | inactive: -0.454
AGAUAUCAGUGGUAAUGCATT against ZNF789 | inactive: 0.0534
CGUGGUUAGUCUAAGUAAATT against SLC17A8 | inactive: -0.332
GCACGCUGAGGAAACGCAATT against PRKAR1B | inactive: -0.0406
GGAGUGUGACAAUAACAAUTT against RNF157 | inactive: 0.0197
GACUCUAGGAGAUAACAUUTT against SPPL2A | inactive: -0.358
CCACAGACCUCAUCGUCCATT against PCYT2 | inactive: 0.217
CCUUAAACCACCAAUUUAUTT against METTL2A | inactive: -0.49
GAAUCGGAGGCGUACGGAUTT against PCSK4 | inactive: 0.828
AGAUUCCCAGGGAACCAAATT against GRM6 | inactive: -0.0544
GAUCCUAAAUCAUGACUUATT against COX6B1 | inactive: -0.706
CGCCUACACUCCUACGUGUTT against ZDHHC24 | inactive: -0.695
GAGUAGAUCUGCUAAAAUUTT against GLA | inactive: -0.494
CCAAGACGAUGAGAGUAUATT against UGCGL2 | inactive: -0.456
CGAUAUGAAGUGUCUAAAATT against TXNDC10 | inactive: -0.0542
GUCCGACAUUUUCAACUUATT against TIGD7 | inactive: -0.116
ACAUCUUCGAGAUCAAUGATT against ACAA1 | inactive: 0.384
CCUCAUCACUCUUGUAGUATT against RAMP2 | inactive: 0.289

An excerpt of these results, comma-delimited:
Sequence,median seed-adjusted z-score
GCUCAUCUCUCACGACAAUTT against HOXC9,inactive: 0.395
GGAUUUCUUCAUCCCGCUUTT against GSX2,inactive: -0.621
AGAGUGCCGUCAUUCCGGATT against BMP4,inactive: -0.612
GAUUUCCAGUAGUCGAAAATT against CD46,inactive: -0.0278
CGAACGGACUUGAACUACATT against DNAH5,inactive: -0.45
CGUUGGAUGAGGUGGAUAATT against PRKCQ,inactive: 0.692

(next part)

Sequence | median seed-adjusted z-score
CCUCCUCGCAGGUACAAAATT against EDA2R | inactive: 0.424
AAGCCGCUGUGAAAGGCUATT against MDH2 | inactive: 0.185
GCCCUGCACUUUCUAGAGATT against PYCR2 | inactive: 0.00371
AGACCAUCGCGGCUAAGAATT against DES | inactive: 0
AAAUGGGUGCAAAAAUACATT against CCL26 | inactive: -0.01
GCUGGAAUAUUGUAAUGGATT against NEK9 | inactive: 0.0698
GCUAAGAGCUUCGUGCUGATT against LGALS1 | inactive: 0.033
GGAGAUCUAUUCAAUGGGATT against SRPK1 | inactive: 0.37
CUGCGUUGUGCAUAACUUUTT against LPPR2 | inactive: 0.255
GAAAGGCAGUUUUCGUAAATT against NXF3 | inactive: 0.672
GGCAGUACCUUCUUCAAGATT against FOXN3 | inactive: -0.636
GGUUACUCGUCAAACAUAUTT against ANGPT1 | inactive: 0.289
GGAGAACCAGUGGAAUUCATT against LIN28B | inactive: 0.407
GGCUCUAUAUGAUUACCAATT against HCLS1 | inactive: 0.107
GGGACGAUCUUAACCACCATT against TRIM2 | inactive: -0.207
GCCUUGGAAUUCGCUGUUATT against ZBTB12 | inactive: 0.0993
GGUUCGUGUUUUAUUCGAATT against ATP9B | inactive: 0
GAGUUGAAGUUAAAGUAAATT against MORF4 | inactive: 0.0121
AGUCGGAGCUGGUAAACUATT against TTC9B | inactive: -0.272
CCAUGACUCAGAUAGUUCATT against SLC39A6 | inactive: -0.262
